Measured values as given in article PMC6527565.
No constants are given. Whether binding was seen depends on the method and setting. Binding seen in cells or lysates may run through a third protein. Some binding calls cover weakened binding; strength is not graded here. For some assays here: Sequences can lack the tags named with a protein. Values belong to the substance of their own block, whether it stands above or below them.

Sequences of proteins named here, by UniProt entry; tags and fusion partners are left off.
UniProt P42224: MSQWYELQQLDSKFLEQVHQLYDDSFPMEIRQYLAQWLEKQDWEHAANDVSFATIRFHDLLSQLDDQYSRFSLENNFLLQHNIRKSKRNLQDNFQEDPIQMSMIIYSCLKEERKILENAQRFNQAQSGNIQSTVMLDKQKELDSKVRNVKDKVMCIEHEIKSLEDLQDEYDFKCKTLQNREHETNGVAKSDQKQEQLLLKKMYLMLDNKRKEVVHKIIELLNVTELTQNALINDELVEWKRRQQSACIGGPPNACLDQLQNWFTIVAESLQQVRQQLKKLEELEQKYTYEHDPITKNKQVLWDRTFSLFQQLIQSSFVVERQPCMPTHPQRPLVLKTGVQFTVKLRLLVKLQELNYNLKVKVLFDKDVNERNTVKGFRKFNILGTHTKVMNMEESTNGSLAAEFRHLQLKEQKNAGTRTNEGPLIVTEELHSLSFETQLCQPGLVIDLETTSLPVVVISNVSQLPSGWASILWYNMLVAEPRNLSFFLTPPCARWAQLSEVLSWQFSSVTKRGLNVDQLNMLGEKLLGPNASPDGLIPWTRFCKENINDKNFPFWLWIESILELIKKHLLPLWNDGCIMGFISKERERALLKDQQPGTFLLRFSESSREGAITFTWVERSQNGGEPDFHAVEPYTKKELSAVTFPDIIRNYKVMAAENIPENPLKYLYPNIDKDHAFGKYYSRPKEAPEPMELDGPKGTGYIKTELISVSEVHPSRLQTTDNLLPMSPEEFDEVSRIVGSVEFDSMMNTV

Legend:
[1] = target: STAT1 (human (endogenous in melanoma cells; cell line not named)) (UniProt P42224); test: co-IP; melanoma cells treated with IFN gamma (2000 U/ml) for 30 min; lysates in M-PER; precipitation with LNK antibody (Santa Cruz A-12, sc-393709) or STAT1 antibody (Cell Signaling 9172); western blot
GST-STAT1 protein = GST-STAT1 protein (UniProt P42224); test: pull-down; recombinant GST-STAT1 from E. coli incubated with lysate of A375 cells expressing V5-LNK; only the target purified
[2] = target: GST-SH2-LNK, GST protein fused to the SH2 domain of LNK (UniProt Q9UQQ2); test: pull-down; recombinant GST fusion of LNK PH or SH2 domain (or GST control) incubated with lysate of HEK293T cells transfected with Flag tag STAT1; only the target purified
[3] = target: T1, GST-PH-LNK, GST protein fused to the PH domain of LNK (UniProt Q9UQQ2); test: as above
T1 sequence: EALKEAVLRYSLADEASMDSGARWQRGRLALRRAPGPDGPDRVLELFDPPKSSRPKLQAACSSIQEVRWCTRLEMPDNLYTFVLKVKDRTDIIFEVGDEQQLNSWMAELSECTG

[4] = target: LNK (SH2B3) (human (endogenous in melanoma cells; cell line not named)) (UniProt Q9UQQ2); test: co-IP; melanoma cells treated with IFN gamma (2000 U/ml) for 30 min; lysates in M-PER; precipitation with LNK antibody (Santa Cruz A-12, sc-393709) or STAT1 antibody (Cell Signaling 9172); western blot

binding [1]: binds
Substance: LNK (SH2B3) (from UniProt Q9UQQ2 1-575)

binding (GST-STAT1 protein): binds
Substance: V5-LNK (from UniProt Q9UQQ2 1-575)

binding [2]: binds | binding [3]: binds
Substance: Flag tag STAT1 (from UniProt P42224 1-750)

binding [4]: binds
Substance: STAT1 (from UniProt P42224 1-750)
